Test results as given in patent publication US4609641 (dated 1986).

Test: general procedure: solution-phase peptide synthesis; EDC/HBT; DPPA
Settings: coupling step

Substance: N^α -[4(S)-(tert-Butoxycarbonyl-L-phenylalanyl-L-phenylalanylamino)-3(S)-hydroxy-6-methylheptyl]-N^α -isobutoxycarbonyl-L-leucine benzylamide
- final HPLC purity: 98%
